Test [1] addresses alpha-enolase (human (endogenous in HB2, MCF-7 and MCF-7R)) (UniProt P06733). In words: co-IP; native plasma membrane fractions (180 μg) of HB2, MCF-7 and MCF-7R cells in PBS with 1% Triton X-100, 60 mM n-Octyl-D-glucoside, 2 mM EDTA; incubated overnight with anti-alpha-enolase (Eno 276/3) or anti-Hsp70 (cmHsp70.1) monoclonal cross-linked to agarose beads; immunoblotting. On the technique in general: Immunoblotting shows a protein as a band on a membrane.

Protein sequences, listed by entry. Tags and fused reporters are not part of them. Residues count along the entry.
UniProt P06733: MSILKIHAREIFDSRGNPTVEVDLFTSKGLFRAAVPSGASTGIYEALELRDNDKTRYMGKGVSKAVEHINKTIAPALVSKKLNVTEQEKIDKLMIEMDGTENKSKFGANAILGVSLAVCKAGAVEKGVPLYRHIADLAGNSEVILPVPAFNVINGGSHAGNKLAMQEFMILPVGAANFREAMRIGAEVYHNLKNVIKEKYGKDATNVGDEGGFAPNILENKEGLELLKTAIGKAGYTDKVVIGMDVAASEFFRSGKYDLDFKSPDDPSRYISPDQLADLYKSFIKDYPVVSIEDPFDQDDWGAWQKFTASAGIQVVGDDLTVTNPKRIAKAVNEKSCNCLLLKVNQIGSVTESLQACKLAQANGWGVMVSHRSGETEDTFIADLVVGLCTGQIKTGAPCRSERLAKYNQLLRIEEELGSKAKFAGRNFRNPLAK
UniProt P0DMV8: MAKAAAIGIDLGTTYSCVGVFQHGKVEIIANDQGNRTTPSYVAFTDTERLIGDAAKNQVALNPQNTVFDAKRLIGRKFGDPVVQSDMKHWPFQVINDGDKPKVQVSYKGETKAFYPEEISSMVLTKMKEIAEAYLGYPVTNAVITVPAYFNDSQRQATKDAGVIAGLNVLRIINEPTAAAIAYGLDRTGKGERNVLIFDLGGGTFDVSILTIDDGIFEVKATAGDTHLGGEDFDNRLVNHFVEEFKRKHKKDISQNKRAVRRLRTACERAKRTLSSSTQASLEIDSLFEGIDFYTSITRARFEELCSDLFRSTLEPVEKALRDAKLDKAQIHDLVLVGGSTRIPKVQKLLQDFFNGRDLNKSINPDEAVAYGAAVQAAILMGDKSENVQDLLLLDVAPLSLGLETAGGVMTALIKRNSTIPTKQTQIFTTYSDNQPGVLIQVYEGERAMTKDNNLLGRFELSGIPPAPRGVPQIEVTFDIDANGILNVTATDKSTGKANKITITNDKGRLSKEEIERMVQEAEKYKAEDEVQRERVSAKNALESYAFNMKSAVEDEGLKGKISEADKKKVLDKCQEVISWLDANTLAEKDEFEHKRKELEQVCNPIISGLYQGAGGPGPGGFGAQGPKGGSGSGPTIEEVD
UniProt Q03135: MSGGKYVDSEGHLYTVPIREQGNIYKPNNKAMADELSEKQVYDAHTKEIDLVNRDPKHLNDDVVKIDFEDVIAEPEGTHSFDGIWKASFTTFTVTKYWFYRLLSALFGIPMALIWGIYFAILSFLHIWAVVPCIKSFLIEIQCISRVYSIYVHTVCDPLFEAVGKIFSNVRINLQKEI
UniProt P04406: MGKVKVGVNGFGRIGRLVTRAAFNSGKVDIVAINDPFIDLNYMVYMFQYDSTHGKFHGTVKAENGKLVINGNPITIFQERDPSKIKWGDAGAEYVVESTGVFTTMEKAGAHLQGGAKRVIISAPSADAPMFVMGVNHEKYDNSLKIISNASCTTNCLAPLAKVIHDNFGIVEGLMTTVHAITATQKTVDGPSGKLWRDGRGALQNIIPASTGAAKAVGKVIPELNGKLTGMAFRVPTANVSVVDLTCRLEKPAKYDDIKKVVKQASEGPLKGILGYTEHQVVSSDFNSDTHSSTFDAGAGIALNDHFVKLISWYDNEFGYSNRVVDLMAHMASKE
UniProt Q03405, residues 23-305: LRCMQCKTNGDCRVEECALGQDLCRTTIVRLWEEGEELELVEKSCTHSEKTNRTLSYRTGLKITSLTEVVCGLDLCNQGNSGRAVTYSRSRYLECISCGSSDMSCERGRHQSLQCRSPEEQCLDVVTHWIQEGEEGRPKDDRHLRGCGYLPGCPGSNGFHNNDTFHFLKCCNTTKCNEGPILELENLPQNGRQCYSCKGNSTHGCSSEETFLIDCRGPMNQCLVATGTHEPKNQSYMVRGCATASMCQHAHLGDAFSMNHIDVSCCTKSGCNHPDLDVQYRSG
UniProt P07355: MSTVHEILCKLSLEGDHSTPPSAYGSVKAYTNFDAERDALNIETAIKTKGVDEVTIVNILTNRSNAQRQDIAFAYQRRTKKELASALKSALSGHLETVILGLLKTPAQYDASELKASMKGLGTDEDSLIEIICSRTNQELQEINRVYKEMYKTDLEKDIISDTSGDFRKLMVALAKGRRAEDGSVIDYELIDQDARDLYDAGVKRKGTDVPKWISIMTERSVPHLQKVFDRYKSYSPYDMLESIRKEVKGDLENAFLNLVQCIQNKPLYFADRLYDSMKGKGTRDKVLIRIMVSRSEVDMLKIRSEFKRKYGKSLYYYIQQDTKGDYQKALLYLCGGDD

Test [2] deals with Heat shock protein 70 (human (endogenous in HB2, MCF-7 and MCF-7R)) (UniProt P0DMV8). Described as above.
Test [3] deals with alpha-enolase (human (endogenous in HB2, MCF-7 and MCF-7R)) (UniProt P06733). Put plainly: proximity ligation; Duolink in situ PLA on live-stained HB2 cells in DMEM/5 mM NaN3; goat anti-alpha-enolase plus mouse anti-surface Hsp70, rabbit anti-uPAR or mouse anti-EGFR, all at 15 μg/ml; signal means within 40 nm.
Test [4] shares this target. In words: co-IP; cytoplasmic extracts (500 μg) of HB2, MCF-7 and MCF-7R cells incubated overnight with anti-alpha-enolase monoclonal Eno 276/3 cross-linked to agarose beads; isotype IgG control; immunoblotting.

These are yes or no findings as the source states them, for the method shown. In cells and extracts the contact can be indirect. Some entries that bind do so weakly or less than the wild type.

On to caveolin 1 (from UniProt Q03135 1-178), for which the binding result in test [1] and in test [2] was “binds” each time.
For the substance “alpha-enolase (from UniProt P06733 1-434) (enzyme)”, the binding entry in test [2] is given as “binds”.
For the substance “GAPDH (from UniProt P04406 1-335) (enzyme)”, the binding entry in test [1] and in test [2] was “no binding” throughout.
For “urokinase plasminogen activator receptor (from UniProt Q03405 23-305)”, the binding result in test [3] and in test [1] was “binds” throughout.
Take Annexin 2 (from UniProt P07355 1-339): the binding result in test [1] and in test [2] was “binds” in each case.
Turning to “Heat shock protein 70 (from UniProt P0DMV8 1-641)”, the binding entry in test [3], in test [4] and in test [1] was “binds” each time.

For the origin of these results see PMC5476664.
